Source: publication PMC12631243
No constants are given. Whether binding was seen depends on the method and setting. In cells and extracts the contact can be indirect.

Amino acid sequences for entries named in this document (tags omitted).
UniProt Q9Z2X8: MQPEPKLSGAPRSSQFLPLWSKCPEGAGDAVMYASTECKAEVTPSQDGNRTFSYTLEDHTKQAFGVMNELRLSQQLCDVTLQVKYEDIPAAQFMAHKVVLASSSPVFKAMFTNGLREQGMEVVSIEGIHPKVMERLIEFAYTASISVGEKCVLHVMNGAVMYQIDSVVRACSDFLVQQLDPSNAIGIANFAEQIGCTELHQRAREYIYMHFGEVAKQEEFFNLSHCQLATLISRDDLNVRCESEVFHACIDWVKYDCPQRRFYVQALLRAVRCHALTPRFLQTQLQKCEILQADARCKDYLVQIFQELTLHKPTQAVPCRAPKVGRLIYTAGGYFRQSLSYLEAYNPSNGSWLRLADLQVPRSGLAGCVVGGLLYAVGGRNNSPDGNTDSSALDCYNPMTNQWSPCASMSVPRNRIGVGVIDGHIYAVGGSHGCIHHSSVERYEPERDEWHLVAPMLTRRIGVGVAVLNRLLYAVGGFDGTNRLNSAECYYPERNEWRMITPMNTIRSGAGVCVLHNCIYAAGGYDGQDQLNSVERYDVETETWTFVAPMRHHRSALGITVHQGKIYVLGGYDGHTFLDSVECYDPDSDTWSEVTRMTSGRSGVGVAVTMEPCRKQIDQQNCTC

What was measured:
Assay in all cases: co-IP; Pierce Crosslink Magnetic IP/Co-IP Kit; antibody cross-linked to magnetic beads with DSS, incubated with cell lysate for 2 hours at room temperature, eluate detected by western blotting; lysate of atRAL-loaded 661W cells; which protein was precipitated is not told
[1] = target: T1, nuclear factor-erythroid 2-related factor-2 (NRF2) (mouse (endogenous in 661W)) (UniProt Q60795)
T1 sequence: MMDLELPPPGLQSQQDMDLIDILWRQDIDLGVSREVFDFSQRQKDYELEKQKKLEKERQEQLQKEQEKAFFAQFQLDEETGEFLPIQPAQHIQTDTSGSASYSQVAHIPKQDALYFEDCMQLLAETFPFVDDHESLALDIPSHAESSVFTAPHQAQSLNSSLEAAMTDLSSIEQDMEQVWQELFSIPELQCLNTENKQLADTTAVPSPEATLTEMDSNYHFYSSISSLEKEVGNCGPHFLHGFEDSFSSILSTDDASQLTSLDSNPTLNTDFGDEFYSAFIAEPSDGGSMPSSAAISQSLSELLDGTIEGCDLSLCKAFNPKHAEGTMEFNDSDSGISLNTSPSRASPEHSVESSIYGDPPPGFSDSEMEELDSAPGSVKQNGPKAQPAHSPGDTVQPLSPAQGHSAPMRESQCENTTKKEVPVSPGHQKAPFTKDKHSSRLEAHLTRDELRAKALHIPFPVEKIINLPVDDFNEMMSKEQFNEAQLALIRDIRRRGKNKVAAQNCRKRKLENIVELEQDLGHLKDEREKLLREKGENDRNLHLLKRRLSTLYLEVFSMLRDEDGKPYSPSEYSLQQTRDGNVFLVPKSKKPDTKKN

[2] = target: Kelch-like ECH-associated protein 1 (KEAP1) (mouse (endogenous in 661W)) (UniProt Q9Z2X8)
[3] = target: T2, heme oxygenase-1 (HO-1) (mouse (endogenous in 661W)) (UniProt P14901)
T2 sequence: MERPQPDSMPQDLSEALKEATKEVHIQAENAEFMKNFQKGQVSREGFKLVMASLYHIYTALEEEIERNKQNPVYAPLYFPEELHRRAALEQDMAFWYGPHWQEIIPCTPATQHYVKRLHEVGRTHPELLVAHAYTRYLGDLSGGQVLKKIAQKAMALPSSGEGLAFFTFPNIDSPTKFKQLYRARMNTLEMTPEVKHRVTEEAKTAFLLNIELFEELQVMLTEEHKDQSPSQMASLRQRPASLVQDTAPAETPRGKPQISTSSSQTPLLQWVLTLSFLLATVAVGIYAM

binding [1]: no binding
binding [2]: no binding
binding [3]: no binding
B1: GSDME-N (N-terminal fragment of gasdermin E) (domain or fragment, UniProt Q9Z2D3 1-270)
chain: MFAKATRNFLKEVDAGGDLISVSHLNDSDKLQLLSLVTKKKRYWCWQRPKYQILSATLEDVLTEGHCLSPVVVESDFVKYESKCENHKSGAIGTVVGKVKLNVGGKGVVESHSSFGTLRKQEVDVQQLIQDAVKRTVNMDNLVLQQVLESRNEVLCVLTQKIMTTQKCVISEHVQSEETCGGMVGIQTKTIQVSATEDGTVTTDTNVVLEIPAATTIAYGIMELFVKQDGQFEFCLLQGKHGGFEHERKLDSVYLDPLAYREFAFLDMLD
